The supplement of paper PMC4604168 (melanoma cell lines)
Some of the results follow. Repeats are few or missing, and single values can be far off.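 Imaging used 1,536-well plates; nuclei positive for cleaved PARP by antibody were divided by total DNA-stained nuclei to yield the apoptosis fraction. Doses for screening kept most cells viable, and cell lines differ markedly in resting and induced cleaved-PARP levels.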

Legend:
Test in all cases: cleaved PARP positive nuclei fraction relative to DMSO control; melanoma cells; higher = more apoptosis
Conditions in all cases: library dose: low library concentration; 72 h
WM115 = system: WM115
WM1716 = system: WM1716
WM1745 = system: WM1745
WM3526 = system: WM3526
WM3619 = system: WM3619
WM451Lu = system: WM451Lu

| SMILES | cleaved PARP positive nuclei fraction (WM115) | cleaved PARP positive nuclei fraction (WM1716) | cleaved PARP positive nuclei fraction (WM1745) | cleaved PARP positive nuclei fraction (WM3526) | cleaved PARP positive nuclei fraction (WM3619) | cleaved PARP positive nuclei fraction (WM451Lu) |
| --- | --- | --- | --- | --- | --- | --- |
| C[As](C)SC[C@H](NC(=O)CC[C@H](N)C(=O)O)C(=O)NCC(=O)O [Darinaparsin] + COC(=O)c1sccc1S(=O)(=O)Nc1ccc(Nc2ccccc2)cc1OC [GSK0660] (first compound 0.4 µM, partner dose 1 µM) | 206% | 82% | 88.5% | 66.3% | 75.5% | 63.6% |
| Cn1cc(C2=C(c3cn(C4CCN(Cc5ccccn5)CC4)c4ccccc34)C(=O)NC2=O)c2ccccc21 [Enzastaurin] + Cn1nnc2c(C(N)=O)ncn2c1=O [temozolomide] (first compound 0.8 µM, partner dose 2 µM) | 66.9% | 38.7% | 115% | 22.7% | 85.8% | 41.1% |
| Cc1cc(SCc2sc(-c3ccc(C(F)(F)F)c(F)c3)nc2C)ccc1OCC(=O)O + CC(C)CCN1c2nc(Nc3cc(F)c(O)c(F)c3)ncc2N(C)C(=O)C1C [BID1870] (first compound 2 µM, partner dose 0.2 µM) | 79.2% | 113% | 120% | 63.4% | 71.4% | 242% |
| N.N.[Cl][Pt][Cl] [cisplatin] + NCC(=O)Nc1ccc(-n2nc(C(F)(F)F)cc2-c2ccc3c(ccc4ccccc43)c2)cc1 [OSU03012] (first compound 1.6 µM, partner dose 1 µM) | 32.3% | 103% | 92.2% | 43.2% | 86.9% | 97.2% |
| C[C@@H]1CCN(C(=O)CC#N)C[C@@H]1N(C)c1ncnc2[nH]ccc12 + C/C(O)=C(\C#N)C(=O)Nc1cc(Br)ccc1Br [LFM-A13] (first compound 1 µM, partner dose 2 µM) | 126% | 170% | 334% | 33.3% | 90.5% | 71.3% |
| CN(c1ncccc1CNc1nc(Nc2ccc3c(c2)CC(=O)N3)ncc1C(F)(F)F)S(C)(=O)=O + O=C(Oc1ccc([N+](=O)[O-])cc1)N1CCC(C(O)(c2ccc3c(c2)OCO3)c2ccc3c(c2)OCO3)CC1 [JZL184] (first compound 0.08 µM, partner dose 1 µM) | 64.5% | 233% | 102% | 95.7% | 95.3% | 1350% |
| Cn1cc(C2=C(c3cn(C4CCN(Cc5ccccn5)CC4)c4ccccc34)C(=O)NC2=O)c2ccccc21 [Enzastaurin] + C[C@@H](Oc1cc(-c2cnn(C3CCNCC3)c2)cnc1N)c1c(Cl)ccc(F)c1Cl [Crizotinib] (first compound 0.8 µM, partner dose 0.2 µM) | 50.6% | 178% | 91% | 671% | 171% | 177% |
| N.N.[Cl][Pt][Cl] [cisplatin] + Nc1ncn([C@H]2C[C@H](O)[C@@H](CO)O2)c(=O)n1 [decitabine] (first compound 1.6 µM, partner dose 0.1 µM) | 205% | 45.6% | 98.2% | 282% | 108% | 69.8% |
| C[As](C)SC[C@H](NC(=O)CC[C@H](N)C(=O)O)C(=O)NCC(=O)O [Darinaparsin] + NC(=O)Nc1cc(-c2cccc(F)c2)sc1C(=O)N[C@H]1CCCNC1 [AZD7762] (first compound 0.4 µM, partner dose 0.02 µM) | 96.9% | 71% | 94.3% | 61.7% | 106% | 177% |
| O=C(O)c1ccc(-c2c[nH]c3ncc(-c4ccccc4)cc23)cc1C1CCCC1 + Cc1cc(SCc2sc(-c3ccc(C(F)(F)F)c(F)c3)nc2C)ccc1OCC(=O)O [GW0742] (first compound 0.16 µM, partner dose 2 µM) | 95.1% | 50% | 104% | 121% | 87.6% | 181% |
| CC1(C)CCC(c2ccc(Cl)cc2)=C(CN2CCN(c3ccc(C(=O)NS(=O)(=O)c4ccc(N[C@H](CCN5CCOCC5)CSc5ccccc5)c(S(=O)(=O)C(F)(F)F)c4)cc3)CC2)C1 + C[As](C)SC[C@H](NC(=O)CC[C@H](N)C(=O)O)C(=O)NCC(=O)O [Darinaparsin] (first compound 0.4 µM, partner dose 0.4 µM) | 166% | 463% | 593% | 188% | 93.3% | 24.2% |
| Cn1cc(C2=C(c3cn(C4CCN(Cc5ccccn5)CC4)c4ccccc34)C(=O)NC2=O)c2ccccc21 [Enzastaurin] + CC(C)C[C@H](NC(=O)[C@H](Cc1ccccc1)NC(=O)c1cnccn1)B(O)O [Bortezomib] (first compound 0.8 µM, partner dose 0.001 µM) | 73.1% | 223% | 215% | 39.3% | 1000% | 82.6% |
| c1cc(-c2cnn3cc(-c4ccc(OCCN5CCCCC5)cc4)cnc23)ccn1 [Dorsomorphin] + O=C(Oc1ccc([N+](=O)[O-])cc1)N1CCC(C(O)(c2ccc3c(c2)OCO3)c2ccc3c(c2)OCO3)CC1 [JZL184] (first compound 0.4 µM, partner dose 1 µM) | 69.1% | 67.2% | 106% | 225% | 82.5% | 339% |
| Cc1cc(SCc2sc(-c3ccc(C(F)(F)F)c(F)c3)nc2C)ccc1OCC(=O)O + Cn1cc(/C=C2\C(=O)Nc3cccnc32)c2ccccc21 [GW441756] (first compound 2 µM, partner dose 0.4 µM) | 147% | 44.5% | 111% | 150% | 80.1% | 70.3% |
| Cn1cc(C2=C(c3cn(C4CCN(Cc5ccccn5)CC4)c4ccccc34)C(=O)NC2=O)c2ccccc21 [Enzastaurin] + O=C(O)[C@@H]1[O][Sb](=[O])([O][Sb]2(=[O])[O][C@H]([C@H](O)CO)[C@H](O)[C@H](C(=O)O)[O]2)[O][C@H]([C@H](O)CO)[C@@H]1O [stibogluconate] (first compound 0.8 µM, partner dose 2 µM) | 82.9% | 36.7% | 101% | 62.9% | 80.4% | 21.7% |
| Cn1cnc2c(F)c(Nc3ccc(Br)cc3Cl)c(C(=O)NOCCO)cc21 [selumetinib] + C[As](C)SC[C@H](NC(=O)CC[C@H](N)C(=O)O)C(=O)NCC(=O)O [Darinaparsin] (first compound 0.015 µM, partner dose 0.4 µM) | 87.9% | 75.5% | 942% | 101% | 104% | 20.3% |
| OCCn1cc(-c2cnc3nnn(Cc4ccc5ncccc5c4)c3n2)cn1 + C/C(O)=C(\C#N)C(=O)Nc1cc(Br)ccc1Br [LFM-A13] (first compound 1 µM, partner dose 2 µM) | 143% | 110% | 104% | 148% | 97.4% | 76.9% |
| Cn1cc(C2=C(c3cn(C4CCN(Cc5ccccn5)CC4)c4ccccc34)C(=O)NC2=O)c2ccccc21 [Enzastaurin] + N#Cc1c(O)c2c(-c3ccc(-c4ccccc4O)cc3)csc2[nH]c1=O [A769662] (first compound 0.8 µM, partner dose 2 µM) | 34.1% | 483% | 104% | 302% | 69.4% | 19.8% |
| C[C@]12O[C@H](C[C@]1(O)CO)n1c3ccccc3c3c4c(c5c6ccccc6n2c5c31)CNC4=O [Lestaurtinib] + CCCCCCCCc1ccc(CCC(N)(CO)CO)cc1 [fingolimod] (first compound 0.004 µM, partner dose 2 µM) | 40.1% | 69.6% | 113% | 314% | 83.4% | 48% |
| CCN(CC)CCNC(=O)c1c(C)[nH]c(/C=C2\C(=O)Nc3ccc(F)cc32)c1C [sunitinib] + C[As](C)SC[C@H](NC(=O)CC[C@H](N)C(=O)O)C(=O)NCC(=O)O [Darinaparsin] (first compound 0.4 µM, partner dose 0.4 µM) | 88.1% | 26.6% | 100% | 91.6% | 177% | 46.8% |
| C[As](C)SC[C@H](NC(=O)CC[C@H](N)C(=O)O)C(=O)NCC(=O)O [Darinaparsin] + CCc1ccc(CCOc2ccc(CC3SC(=O)NC3=O)cc2)nc1 [pioglitazone] (first compound 0.4 µM, partner dose 2 µM) | 69.9% | 107% | 105% | 82.3% | 74.4% | 77.9% |
| Cc1cc(Nc2cc(N3CCN(C)CC3)nc(/C=C/c3ccccc3)n2)n[nH]1 + N.N.[Cl][Pt][Cl] [cisplatin] (first compound 0.04 µM, partner dose 1.6 µM) | 122% | 842% | 93.9% | 148% | 88.9% | 161% |
| Cn1cc(C2=C(c3cn(C4CCN(Cc5ccccn5)CC4)c4ccccc34)C(=O)NC2=O)c2ccccc21 [Enzastaurin] + COC(=O)c1sccc1S(=O)(=O)Nc1ccc(Nc2ccccc2)cc1OC [GSK0660] (first compound 0.8 µM, partner dose 1 µM) | 173% | 136% | 98.1% | 80.2% | 59% | 82.7% |
| CC[C@]1(O)C[C@H]2CN(CCc3c([nH]c4ccccc34)[C@@](C(=O)OC)(c3cc4c(cc3OC)N(C=O)[C@H]3[C@@](O)(C(=O)OC)[C@H](OC(C)=O)[C@]5(CC)C=CCN6CC[C@]43[C@@H]65)C2)C1 [vincristine] + N.N.[Cl][Pt][Cl] [cisplatin] (first compound 0.0001 µM, partner dose 1.6 µM) | 76.9% | 139% | 86.6% | 56% | 83.4% | 182% |
| COc1ccc(-c2ccc3c(N4CCOCC4)nc(N4C[C@@H](C)O[C@@H](C)C4)nc3n2)cc1CO + C/C(O)=C(\C#N)C(=O)Nc1cc(Br)ccc1Br [LFM-A13] (first compound 0.02 µM, partner dose 2 µM) | 83.5% | 76.9% | 1230% | 56% | 85% | 64.9% |

As entered above:
Entry of Cn1cc(C2=C(c3cn(C4CCN(Cc5ccccn5)CC4)c4ccccc34)C(=O)NC2=O)c2ccccc21 [Enzastaurin] + CC(C)C[C@H](NC(=O)[C@H](Cc1ccccc1)NC(=O)c1cnccn1)B(O)O [Bortezomib] (first compound 0.8 µM, partner dose 0.001 µM) under cleaved PARP positive nuclei fraction (WM3619): 1000%
Entry of N.N.[Cl][Pt][Cl] [cisplatin] + NCC(=O)Nc1ccc(-n2nc(C(F)(F)F)cc2-c2ccc3c(ccc4ccccc43)c2)cc1 [OSU03012] (first compound 1.6 µM, partner dose 1 µM) under cleaved PARP positive nuclei fraction (WM115): 32.3%
